In PMC9998874:
Results are given in words; binding and its absence hold for the method and conditions named. In cells and extracts the contact can be indirect. Some entries that bind do so weakly or less than the wild type. One block for each substance: values may come before it.

Chains of the proteins cited; added tags and fusions are not shown. Lines headed by an entry give the natural chain unless they say otherwise; changes in a name come on top.
UniProt Q13185: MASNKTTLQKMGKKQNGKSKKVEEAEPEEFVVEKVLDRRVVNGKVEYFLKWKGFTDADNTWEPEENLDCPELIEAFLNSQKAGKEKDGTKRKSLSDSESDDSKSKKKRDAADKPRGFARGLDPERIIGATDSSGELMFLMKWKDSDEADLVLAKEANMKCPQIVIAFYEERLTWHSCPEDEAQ
UniProt Q13547: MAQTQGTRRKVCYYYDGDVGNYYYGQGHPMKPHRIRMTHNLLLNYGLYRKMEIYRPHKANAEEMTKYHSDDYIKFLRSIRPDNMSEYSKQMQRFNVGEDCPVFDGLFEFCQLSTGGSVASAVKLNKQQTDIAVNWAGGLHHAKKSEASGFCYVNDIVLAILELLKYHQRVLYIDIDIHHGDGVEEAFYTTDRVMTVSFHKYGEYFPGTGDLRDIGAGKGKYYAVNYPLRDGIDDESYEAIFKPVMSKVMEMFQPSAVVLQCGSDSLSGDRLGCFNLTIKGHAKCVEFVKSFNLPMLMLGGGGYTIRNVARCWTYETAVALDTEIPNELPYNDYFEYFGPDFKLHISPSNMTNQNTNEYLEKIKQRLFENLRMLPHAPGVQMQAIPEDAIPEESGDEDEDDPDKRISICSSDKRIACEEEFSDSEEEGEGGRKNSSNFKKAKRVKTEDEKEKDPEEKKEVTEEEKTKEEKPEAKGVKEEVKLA
UniProt Q14676: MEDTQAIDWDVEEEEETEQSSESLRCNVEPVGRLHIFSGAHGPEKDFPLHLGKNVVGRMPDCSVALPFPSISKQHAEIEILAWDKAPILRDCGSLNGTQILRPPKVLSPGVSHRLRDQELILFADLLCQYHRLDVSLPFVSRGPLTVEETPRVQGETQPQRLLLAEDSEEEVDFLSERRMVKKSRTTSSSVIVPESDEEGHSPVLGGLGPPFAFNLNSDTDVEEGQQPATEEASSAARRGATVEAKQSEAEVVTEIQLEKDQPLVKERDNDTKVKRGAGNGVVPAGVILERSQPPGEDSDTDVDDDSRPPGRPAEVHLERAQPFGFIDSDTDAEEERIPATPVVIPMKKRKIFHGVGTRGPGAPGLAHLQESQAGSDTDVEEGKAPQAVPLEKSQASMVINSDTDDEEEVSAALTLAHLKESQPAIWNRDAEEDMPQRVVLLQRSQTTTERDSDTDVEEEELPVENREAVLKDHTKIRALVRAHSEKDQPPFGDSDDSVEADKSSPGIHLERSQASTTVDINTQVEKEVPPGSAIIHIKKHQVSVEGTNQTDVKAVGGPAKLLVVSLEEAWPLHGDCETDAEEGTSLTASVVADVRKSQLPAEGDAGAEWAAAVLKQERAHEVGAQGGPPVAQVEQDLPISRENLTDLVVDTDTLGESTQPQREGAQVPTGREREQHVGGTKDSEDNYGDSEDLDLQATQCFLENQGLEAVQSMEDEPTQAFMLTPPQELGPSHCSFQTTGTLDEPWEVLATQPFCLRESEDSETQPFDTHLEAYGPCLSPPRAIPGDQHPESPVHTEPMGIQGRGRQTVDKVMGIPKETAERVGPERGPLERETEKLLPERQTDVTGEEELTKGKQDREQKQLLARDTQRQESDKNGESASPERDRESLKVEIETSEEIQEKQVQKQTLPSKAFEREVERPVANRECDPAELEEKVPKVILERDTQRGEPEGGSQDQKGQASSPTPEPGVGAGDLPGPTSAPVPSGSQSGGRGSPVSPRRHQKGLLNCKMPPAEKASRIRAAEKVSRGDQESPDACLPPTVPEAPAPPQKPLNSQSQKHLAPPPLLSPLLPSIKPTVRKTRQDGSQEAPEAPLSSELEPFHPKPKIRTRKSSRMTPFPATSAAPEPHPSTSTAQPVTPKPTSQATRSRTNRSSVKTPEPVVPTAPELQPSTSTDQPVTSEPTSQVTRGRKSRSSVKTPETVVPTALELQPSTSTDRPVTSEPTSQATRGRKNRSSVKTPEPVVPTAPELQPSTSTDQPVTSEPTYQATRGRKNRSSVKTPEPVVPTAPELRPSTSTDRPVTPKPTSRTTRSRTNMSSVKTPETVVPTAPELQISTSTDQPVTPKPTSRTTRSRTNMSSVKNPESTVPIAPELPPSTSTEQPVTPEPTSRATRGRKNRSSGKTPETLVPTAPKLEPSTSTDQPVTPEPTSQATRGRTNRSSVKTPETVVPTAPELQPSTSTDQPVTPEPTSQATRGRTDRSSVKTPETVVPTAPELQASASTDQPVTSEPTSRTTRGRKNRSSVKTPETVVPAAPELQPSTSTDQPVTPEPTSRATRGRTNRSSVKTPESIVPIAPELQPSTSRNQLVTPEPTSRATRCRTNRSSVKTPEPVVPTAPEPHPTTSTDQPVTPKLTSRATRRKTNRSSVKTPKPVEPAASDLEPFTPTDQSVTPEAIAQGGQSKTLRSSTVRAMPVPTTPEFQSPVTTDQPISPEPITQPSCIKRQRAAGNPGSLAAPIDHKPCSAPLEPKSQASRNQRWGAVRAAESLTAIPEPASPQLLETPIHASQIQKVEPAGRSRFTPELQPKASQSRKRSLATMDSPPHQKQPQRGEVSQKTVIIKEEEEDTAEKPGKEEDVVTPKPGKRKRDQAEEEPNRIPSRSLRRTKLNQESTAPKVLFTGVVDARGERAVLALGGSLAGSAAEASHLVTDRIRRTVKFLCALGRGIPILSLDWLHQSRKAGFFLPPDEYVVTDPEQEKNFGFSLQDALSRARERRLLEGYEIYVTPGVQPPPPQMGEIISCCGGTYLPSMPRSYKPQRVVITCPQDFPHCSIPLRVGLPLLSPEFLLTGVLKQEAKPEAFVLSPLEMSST
UniProt Q92769: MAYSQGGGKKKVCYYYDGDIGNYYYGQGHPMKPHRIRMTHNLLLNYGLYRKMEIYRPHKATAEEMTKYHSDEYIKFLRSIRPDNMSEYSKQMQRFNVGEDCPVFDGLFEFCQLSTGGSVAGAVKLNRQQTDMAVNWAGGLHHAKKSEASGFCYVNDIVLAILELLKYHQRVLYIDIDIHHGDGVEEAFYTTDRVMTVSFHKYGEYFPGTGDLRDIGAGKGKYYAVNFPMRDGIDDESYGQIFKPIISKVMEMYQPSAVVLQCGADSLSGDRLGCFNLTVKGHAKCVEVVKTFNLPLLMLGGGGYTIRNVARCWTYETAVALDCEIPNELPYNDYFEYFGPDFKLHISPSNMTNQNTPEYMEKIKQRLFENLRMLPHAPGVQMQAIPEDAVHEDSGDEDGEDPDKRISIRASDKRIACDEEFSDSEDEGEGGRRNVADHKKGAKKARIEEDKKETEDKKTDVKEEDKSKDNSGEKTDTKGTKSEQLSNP

What was measured:
[1] = biological target: HP1γ-flag (lentiviral, in WT and BR MM cells) (UniProt Q13185); assay: co-IP; flag pull-down (silver staining) and IP from WT and BR LP-1 and MM.1 S cells infected with HP1γ-flag lentivirus for 72 h; input 2% lysate
[2] = biological target: endogenous HP1γ (human (endogenous in MM.1 S and LP-1)) (UniProt Q13185); assay: co-IP; endogenous proteins in MM.1 S cells; input 2% whole cell lysate
flag-tagged HP1γ = flag-tagged HP1γ (UniProt Q13185); assay: co-IP; exogenously expressed proteins; NP-40 lysis buffer (50 mM Tris-HCl pH 7.4, 150 mM NaCl), anti-FLAG M2 affinity gel at 4 °C overnight, blot with anti-GFP
[3] = biological target: HDAC1-flag fusion protein in LP-1 cells (UniProt Q13547); assay: co-IP; HDAC1-flag fusion protein immunoprecipitated from LP-1 cells
[4] = biological target: endogenous MDC1 (Fig. 3f) (UniProt Q14676); assay: co-IP; endogenous HP1γ and MDC1, both directions; input 2% whole cell lysate; cells not named
[5] = biological target: endogenous HP1γ (human (endogenous in MM.1 S and LP-1)) (UniProt Q13185); assay: as above
HP1γ-K5R = HP1γ-K5R (UniProt Q13185); assay: co-IP; HP1γ-WT, -K5R and -K5Q immunoprecipitated; blots for MDC1, HDAC1 and H3K9me3 (Supplementary Fig. 6e); cells not given
HP1γ-K5Q = HP1γ-K5Q (UniProt Q13185); assay: as above
[6] = biological target: HP1γ-WT (immunoprecipitated, Supplementary Fig. 6e) (UniProt Q13185); assay: as above

binding (flag-tagged HP1γ): binds
Substance: MDC1-GFP (from UniProt Q14676 1-2089)

binding [3]: binds
binding [4]: binds
Substance: endogenous HP1γ (from UniProt Q13185 1-183)

More lines, now with the values behind:

Substance: endogenous HDAC1 in MM cells (from UniProt Q13547 1-482) (enzyme)
binding [1]: binds
binding [2]: binds

Substance: endogenous HDAC2 in MM cells (from UniProt Q92769 1-488) (enzyme)
binding [2]: binds

Substance: endogenous MDC1 (Fig. 3f) (from UniProt Q14676 1-2089)
binding [5]: binds

Substance: HDAC1 (co-precipitated with HP1γ-WT, -K5R, -K5Q; Supplementary Fig. 6e) (from UniProt Q13547 1-482) (enzyme)
binding (HP1γ-K5R): binds
binding (HP1γ-K5Q): binds
binding [6]: binds

Substance: MDC1 (co-precipitated with HP1γ-WT, -K5R, -K5Q; Supplementary Fig. 6e) (from UniProt Q14676 1-2089)
binding (HP1γ-K5R): binds
binding (HP1γ-K5Q): binds
binding [6]: binds
